Some of the results follow. Residues, ends and D or L forms follow the SMILES beside them. *: point of attachment. Cbz = O=C(OCc1ccccc1)*
Columns and labels:
Assay in all cases: log2 fold change, soluble protein after heating vs DMSO (PISA); higher = thermal stabilisation; K562 cells, 10 uM, 30 min; active = over 0.2 and 3.5 SD of the protein, either way, in both replicates (recomputed)
erlotinib = compound: C#Cc1cccc(Nc2ncnc3cc(OCCOC)c(OCCOC)cc23)c1 [erlotinib]
Summary of the method: (§1)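 For each measurement, 10 μM compound was applied for 30 min to K562 cells at 2×10^6 cells/mL. Aliquots were heated for 3 min across 48°C-58°C, pooled, and extracted in PBS with 0.5% NP-40 at 4°C; the supernatant after 21,000xg for 90 min was soluble protein. This was quantified by TMTpro 16plex LC-MS/MS with channel sums equalised, and thermal stability was reported relative to control samples from duplicates, on a log2 fold-change scale.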

By UniProt entry, the sequences of proteins in these tests, tags left out. Where a name states a change or a piece, a line headed by the entry shows the natural chain unless it says otherwise.
UniProt Q5JS54: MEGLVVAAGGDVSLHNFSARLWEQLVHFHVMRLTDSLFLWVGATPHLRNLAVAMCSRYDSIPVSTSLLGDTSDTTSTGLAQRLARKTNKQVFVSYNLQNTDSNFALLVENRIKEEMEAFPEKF
UniProt Q6ZRP7: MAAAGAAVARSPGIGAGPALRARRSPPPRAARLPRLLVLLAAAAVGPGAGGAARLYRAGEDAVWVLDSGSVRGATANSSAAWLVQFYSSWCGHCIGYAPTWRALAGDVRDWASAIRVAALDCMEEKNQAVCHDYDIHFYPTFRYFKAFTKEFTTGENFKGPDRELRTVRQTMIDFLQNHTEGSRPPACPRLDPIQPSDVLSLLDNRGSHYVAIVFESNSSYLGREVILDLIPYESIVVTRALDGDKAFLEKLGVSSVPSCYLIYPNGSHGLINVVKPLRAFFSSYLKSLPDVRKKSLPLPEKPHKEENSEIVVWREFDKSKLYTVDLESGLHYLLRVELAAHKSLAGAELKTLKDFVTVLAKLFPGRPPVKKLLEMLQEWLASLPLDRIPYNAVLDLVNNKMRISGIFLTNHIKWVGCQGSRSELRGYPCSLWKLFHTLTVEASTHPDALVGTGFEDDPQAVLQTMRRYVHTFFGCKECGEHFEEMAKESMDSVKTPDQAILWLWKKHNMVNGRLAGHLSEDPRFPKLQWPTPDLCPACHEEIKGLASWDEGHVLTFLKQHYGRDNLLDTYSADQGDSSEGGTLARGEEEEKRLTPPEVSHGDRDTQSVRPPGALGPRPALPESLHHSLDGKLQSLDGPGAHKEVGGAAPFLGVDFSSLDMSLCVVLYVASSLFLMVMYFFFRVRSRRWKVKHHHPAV
UniProt P09417: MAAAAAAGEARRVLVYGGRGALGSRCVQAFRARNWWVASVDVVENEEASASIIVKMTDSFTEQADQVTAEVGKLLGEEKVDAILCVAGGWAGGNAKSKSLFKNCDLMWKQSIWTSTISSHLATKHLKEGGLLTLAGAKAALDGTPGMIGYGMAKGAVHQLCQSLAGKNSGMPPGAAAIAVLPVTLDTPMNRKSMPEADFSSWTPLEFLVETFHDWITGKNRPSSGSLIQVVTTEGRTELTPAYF
UniProt O95456: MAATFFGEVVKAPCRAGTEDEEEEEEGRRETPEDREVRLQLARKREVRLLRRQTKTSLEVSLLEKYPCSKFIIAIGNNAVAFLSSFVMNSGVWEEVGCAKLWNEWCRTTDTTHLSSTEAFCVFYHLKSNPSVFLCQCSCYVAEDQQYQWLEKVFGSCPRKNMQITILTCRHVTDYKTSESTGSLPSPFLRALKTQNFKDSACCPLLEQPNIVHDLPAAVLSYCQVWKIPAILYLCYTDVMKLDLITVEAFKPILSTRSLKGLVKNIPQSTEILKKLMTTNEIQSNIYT
UniProt Q9BT73: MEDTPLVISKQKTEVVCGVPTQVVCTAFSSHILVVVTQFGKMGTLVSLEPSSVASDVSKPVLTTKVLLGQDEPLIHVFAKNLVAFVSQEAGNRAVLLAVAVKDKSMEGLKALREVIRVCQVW
UniProt Q9BRP8: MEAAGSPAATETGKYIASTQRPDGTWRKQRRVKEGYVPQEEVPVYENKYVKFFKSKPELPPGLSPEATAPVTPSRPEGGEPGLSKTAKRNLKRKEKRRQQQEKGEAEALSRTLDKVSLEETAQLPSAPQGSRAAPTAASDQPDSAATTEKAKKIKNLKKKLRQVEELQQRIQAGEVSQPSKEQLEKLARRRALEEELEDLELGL
UniProt P20742, whole entry, looked up: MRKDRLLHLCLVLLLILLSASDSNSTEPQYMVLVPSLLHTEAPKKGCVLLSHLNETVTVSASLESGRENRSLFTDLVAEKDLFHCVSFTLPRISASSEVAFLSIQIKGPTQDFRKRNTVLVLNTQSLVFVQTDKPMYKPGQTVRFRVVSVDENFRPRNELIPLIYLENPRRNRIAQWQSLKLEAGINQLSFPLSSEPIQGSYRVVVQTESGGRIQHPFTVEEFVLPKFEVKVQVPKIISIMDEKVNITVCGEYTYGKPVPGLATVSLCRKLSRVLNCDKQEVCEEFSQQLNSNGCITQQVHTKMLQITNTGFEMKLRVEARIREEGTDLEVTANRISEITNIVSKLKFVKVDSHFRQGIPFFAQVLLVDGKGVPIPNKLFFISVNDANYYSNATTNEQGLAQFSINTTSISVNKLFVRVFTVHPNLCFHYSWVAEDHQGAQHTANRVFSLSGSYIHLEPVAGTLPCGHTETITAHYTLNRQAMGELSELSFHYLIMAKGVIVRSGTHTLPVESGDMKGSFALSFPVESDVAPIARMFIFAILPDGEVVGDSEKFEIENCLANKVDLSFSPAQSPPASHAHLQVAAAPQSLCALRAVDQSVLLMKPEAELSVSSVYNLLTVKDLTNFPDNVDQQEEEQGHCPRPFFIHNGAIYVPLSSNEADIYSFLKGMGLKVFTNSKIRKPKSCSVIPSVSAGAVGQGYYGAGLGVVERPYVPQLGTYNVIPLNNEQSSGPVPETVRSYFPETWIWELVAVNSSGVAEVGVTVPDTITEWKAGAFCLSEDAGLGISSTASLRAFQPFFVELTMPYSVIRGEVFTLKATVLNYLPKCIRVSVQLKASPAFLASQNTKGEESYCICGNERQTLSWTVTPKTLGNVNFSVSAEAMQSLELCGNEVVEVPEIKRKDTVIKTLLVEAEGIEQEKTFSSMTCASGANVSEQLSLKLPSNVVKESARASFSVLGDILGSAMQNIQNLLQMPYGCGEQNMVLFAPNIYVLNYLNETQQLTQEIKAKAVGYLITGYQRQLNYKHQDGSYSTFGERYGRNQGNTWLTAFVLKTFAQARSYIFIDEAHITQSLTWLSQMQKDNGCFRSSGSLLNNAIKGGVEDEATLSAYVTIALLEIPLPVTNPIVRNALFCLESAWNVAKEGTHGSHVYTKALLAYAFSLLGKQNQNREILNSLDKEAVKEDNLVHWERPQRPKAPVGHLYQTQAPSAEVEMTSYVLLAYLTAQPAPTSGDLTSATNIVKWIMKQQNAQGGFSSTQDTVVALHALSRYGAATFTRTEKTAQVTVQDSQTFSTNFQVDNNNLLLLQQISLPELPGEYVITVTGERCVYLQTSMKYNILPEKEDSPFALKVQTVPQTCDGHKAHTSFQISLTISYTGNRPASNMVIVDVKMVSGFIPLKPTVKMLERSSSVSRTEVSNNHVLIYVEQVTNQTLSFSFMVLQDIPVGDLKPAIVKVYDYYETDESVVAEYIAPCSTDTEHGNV
UniProt Q8TB72: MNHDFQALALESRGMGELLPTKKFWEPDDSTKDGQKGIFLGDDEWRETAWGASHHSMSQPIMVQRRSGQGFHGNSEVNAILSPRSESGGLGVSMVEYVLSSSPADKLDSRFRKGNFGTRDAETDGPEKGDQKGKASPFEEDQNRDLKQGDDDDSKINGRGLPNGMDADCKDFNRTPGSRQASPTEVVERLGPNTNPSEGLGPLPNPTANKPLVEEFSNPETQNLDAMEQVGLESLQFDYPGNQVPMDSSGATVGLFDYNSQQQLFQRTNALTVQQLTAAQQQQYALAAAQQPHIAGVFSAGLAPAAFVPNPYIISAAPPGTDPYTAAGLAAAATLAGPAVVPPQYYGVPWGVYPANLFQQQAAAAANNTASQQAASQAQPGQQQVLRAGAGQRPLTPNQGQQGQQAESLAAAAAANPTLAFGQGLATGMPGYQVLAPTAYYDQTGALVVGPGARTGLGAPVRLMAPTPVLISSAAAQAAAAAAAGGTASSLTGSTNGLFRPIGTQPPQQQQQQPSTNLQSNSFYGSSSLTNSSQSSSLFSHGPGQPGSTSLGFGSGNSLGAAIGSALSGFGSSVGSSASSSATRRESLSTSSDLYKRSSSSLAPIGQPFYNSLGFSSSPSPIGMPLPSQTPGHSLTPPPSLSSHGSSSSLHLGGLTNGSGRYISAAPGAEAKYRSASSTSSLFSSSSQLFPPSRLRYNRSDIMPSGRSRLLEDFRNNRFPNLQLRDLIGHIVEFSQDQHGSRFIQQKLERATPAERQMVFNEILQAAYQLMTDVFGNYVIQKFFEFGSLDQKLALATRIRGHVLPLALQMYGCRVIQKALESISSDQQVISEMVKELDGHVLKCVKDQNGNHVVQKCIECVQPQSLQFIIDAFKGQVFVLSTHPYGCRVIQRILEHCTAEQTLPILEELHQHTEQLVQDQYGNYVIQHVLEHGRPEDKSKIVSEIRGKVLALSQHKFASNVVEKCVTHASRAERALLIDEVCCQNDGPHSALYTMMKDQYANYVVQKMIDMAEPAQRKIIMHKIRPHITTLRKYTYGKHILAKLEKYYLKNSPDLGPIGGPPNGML
UniProt Q96BW5: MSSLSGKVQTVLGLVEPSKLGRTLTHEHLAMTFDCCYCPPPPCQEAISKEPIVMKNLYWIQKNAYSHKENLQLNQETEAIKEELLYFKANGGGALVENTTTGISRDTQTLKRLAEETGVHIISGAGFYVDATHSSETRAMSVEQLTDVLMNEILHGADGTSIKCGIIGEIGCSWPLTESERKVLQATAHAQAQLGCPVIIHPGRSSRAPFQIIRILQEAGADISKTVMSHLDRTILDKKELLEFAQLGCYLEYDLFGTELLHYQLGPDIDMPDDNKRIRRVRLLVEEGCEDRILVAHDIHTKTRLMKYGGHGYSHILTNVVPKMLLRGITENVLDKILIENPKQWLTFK
UniProt Q53H96: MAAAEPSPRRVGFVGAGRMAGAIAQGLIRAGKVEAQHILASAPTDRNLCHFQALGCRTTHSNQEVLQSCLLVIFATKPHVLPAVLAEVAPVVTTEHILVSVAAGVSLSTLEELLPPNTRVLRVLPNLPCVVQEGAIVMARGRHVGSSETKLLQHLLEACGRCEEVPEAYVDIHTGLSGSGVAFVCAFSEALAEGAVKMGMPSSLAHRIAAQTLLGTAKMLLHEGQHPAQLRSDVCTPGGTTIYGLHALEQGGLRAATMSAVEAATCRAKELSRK
UniProt Q9H0K6: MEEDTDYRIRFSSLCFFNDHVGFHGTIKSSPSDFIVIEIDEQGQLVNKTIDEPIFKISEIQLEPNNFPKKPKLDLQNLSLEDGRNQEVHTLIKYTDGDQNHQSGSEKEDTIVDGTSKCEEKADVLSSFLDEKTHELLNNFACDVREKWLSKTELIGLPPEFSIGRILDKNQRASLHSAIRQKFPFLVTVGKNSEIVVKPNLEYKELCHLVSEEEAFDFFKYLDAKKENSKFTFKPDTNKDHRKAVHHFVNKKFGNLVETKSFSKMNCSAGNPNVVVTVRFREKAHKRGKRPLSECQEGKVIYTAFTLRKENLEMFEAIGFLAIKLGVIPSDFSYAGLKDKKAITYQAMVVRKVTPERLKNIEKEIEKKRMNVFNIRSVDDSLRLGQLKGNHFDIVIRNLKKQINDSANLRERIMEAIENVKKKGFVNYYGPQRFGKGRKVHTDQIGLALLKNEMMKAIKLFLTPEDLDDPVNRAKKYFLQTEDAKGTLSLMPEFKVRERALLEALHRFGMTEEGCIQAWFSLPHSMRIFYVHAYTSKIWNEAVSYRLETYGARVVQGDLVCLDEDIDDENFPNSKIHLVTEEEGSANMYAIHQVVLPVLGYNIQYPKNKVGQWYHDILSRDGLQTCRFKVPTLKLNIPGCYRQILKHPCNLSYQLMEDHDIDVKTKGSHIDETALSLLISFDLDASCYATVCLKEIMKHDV
UniProt Q96C36: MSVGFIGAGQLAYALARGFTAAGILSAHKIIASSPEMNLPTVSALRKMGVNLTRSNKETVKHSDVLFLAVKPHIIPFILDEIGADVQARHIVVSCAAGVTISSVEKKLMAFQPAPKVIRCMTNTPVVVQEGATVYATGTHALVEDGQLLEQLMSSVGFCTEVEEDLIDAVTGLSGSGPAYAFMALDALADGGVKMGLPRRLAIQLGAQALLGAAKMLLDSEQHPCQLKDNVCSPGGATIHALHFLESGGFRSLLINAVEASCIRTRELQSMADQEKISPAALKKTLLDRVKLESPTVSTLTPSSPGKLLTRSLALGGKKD
UniProt Q8TBF2: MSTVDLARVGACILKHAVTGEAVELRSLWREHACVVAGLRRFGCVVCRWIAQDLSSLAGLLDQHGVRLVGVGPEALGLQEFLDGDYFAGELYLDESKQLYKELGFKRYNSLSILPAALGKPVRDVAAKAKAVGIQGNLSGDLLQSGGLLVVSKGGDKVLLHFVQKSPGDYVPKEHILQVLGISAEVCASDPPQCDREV
UniProt P07602: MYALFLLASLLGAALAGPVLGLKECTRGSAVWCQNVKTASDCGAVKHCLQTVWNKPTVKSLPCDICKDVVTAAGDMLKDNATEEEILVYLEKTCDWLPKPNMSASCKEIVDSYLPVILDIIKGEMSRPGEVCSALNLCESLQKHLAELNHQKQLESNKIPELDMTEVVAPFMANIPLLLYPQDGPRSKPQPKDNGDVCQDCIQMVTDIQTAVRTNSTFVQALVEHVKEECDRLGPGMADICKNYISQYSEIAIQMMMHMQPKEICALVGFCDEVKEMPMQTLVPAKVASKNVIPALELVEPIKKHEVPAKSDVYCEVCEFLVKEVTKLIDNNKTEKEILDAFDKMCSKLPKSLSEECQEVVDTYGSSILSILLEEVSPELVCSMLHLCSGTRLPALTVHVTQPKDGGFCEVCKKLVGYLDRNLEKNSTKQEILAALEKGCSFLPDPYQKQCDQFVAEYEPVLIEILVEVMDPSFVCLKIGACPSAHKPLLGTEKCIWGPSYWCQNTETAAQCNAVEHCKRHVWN

[1] = compound: C/C(=N\NC(=O)C1=CC(=CC=C1)S(=O)(=O)N2CCOCC2)/C3=C(C=CC(=C3)Cl)O
Summary of the method: as §1

[2] = compound: C1=CC(=C(C=C1Cl)C2=NC3=NC=CN=C3C(=N2)NC4=CC=NC=C4)F
Summary of the method: as §1

[3] = compound: C1=CC(=CC=C1C2=NC3=C(N2)C=C(C=C3)C(=O)N)OC4=CC=C(C=C4)Cl
Summary of the method: as §1

[4] = compound: C1=CC2=C(C=CC(=C2)/C=C\3/C(=O)NC(=NCC4=CC=CS4)S3)N=C1
Summary of the method: as §1

[5] = compound: C1=CC2=NC=CN=C2C=C1/C=C/3\C(=O)NC(=O)S3
Summary of the method: as §1

[6] = compound: C1=CC=C(C=C1)C2=NC(=C(N2)C3=CC=NC=C3)C4=CC(=C(C=C4)Cl)O
Summary of the method: as §1

[7] = compound: C1=CC=C2C(=C1)C3=NNC4=CC=CC(=C43)C2=O
Summary of the method: as §1

[8] = compound: C1CCN(C1)C(=O)NC2=CC=CC(=C2)NC3=NC=C(C(=N3)NCCC4=CN=CN4)Br
Summary of the method: as §1

[9] = compound: C1CN(CCC1(CC2=CC=C(C=C2)Cl)N)C3=NC=NC4=C3C=CN4
Summary of the method: as §1

IRAK-1-4 Inhibitor I = compound: C1COCCN1CCN2C3=CC=CC=C3N=C2NC(=O)C4=CC(=CC=C4)[N+](=O)[O-] [IRAK-1-4 Inhibitor I]
Summary of the method: as §1

ibrutinib = compound: C=CC(=O)N1CCC[C@@H](n2nc(-c3ccc(Oc4ccccc4)cc3)c3c(N)ncnc32)C1 [ibrutinib]
Summary of the method: as §1

[10] = compound: CC(=O)c1cnc2ccc(-c3cc(Cl)c(O)c(Cl)c3)nc2c1N[C@H]1CC[C@H](CN(C)C)CC1
Summary of the method: as §1

ralimetinib = compound: CC(C)(C)Cn1c(N)nc2ccc(-c3[nH]c(C(C)(C)C)nc3-c3ccc(F)cc3)nc21 [ralimetinib]
Summary of the method: as §1

[11] = compound: CC(C)(O)CC(=O)NCCn1ccc2ncnc(Nc3ccc(Oc4cccc(C(F)(F)F)c4)c(Cl)c3)c21
Summary of the method: as §1

[12] = compound: CC(C)C1=C2N=C(C=C(N2N=C1)NCC3=CC=CC=C3)NCCCCCCN
Summary of the method: as §1

[13] = compound: CC(C)C[C@@H](C=O)NC(=O)[C@H](CC(C)C)NC(=O)[C@H](CC(C)C)NC(=O)OCc1ccccc1
Summary of the method: as §1

pinometostat = compound: CC(C)N(C[C@H]1O[C@@H](n2cnc3c(N)ncnc32)[C@H](O)[C@@H]1O)[C@H]1C[C@@H](CCc2nc3cc(C(C)(C)C)ccc3[nH]2)C1 [pinometostat]
Summary of the method: as §1

[14] = compound: CC1=C(C(CC(=O)N1)C2=CC=C(C=C2)C(F)(F)F)C(=O)NC3=C(C=C4C(=C3)C=NN4)F
Summary of the method: as §1

[15] = compound: CC1=C(C2=C(C=C1)C(=O)C3=CC=CC=C3N2CCCN)C
Summary of the method: as §1

Measured: log2 fold change

PTBP1 (UniProt P26599)
inactive: erlotinib -0.01 | [1] 0.077 | [2] -0.061 | [3] 0.008 | [4] 0.031 | [5] -0.035 | [6] 0.054 | [7] -0.017 | [8] -0.046 | [9] 0.03 | IRAK-1-4 Inhibitor I -0.051 | ibrutinib 0.047 | [10] -0.053 | ralimetinib 0.098 | [11] -0.026 | [12] -0.131 | [13] 0.008 | pinometostat -0.056 | [14] -0.031 | [15] 0.119

PSMG4 isoform 2 (UniProt Q5JS54)
inactive: erlotinib 0.094 | [1] 0.056 | [2] 0.158 | [3] -0.012 | [4] -0.039 | [5] 0.079 | [6] 0.033 | [7] -0.016 | [8] -0.05 | [9] -0.009 | IRAK-1-4 Inhibitor I 0.074 | ibrutinib -0.025 | [10] 0.054 | ralimetinib -0.123 | [11] -0.069 | [12] 0.057 | [13] -0.017 | pinometostat 0.033 | [14] 0.144 | [15] 0.019

QSOX2 (UniProt Q6ZRP7)
inactive: erlotinib -0.01 | [1] 0.027 | [2] 0.051 | [3] 0.048 | [4] 0.013 | [5] 0.009 | [6] -0.046 | [7] -0.051 | [8] -0.023 | [9] 0.043 | IRAK-1-4 Inhibitor I 0.063 | ibrutinib -0.006 | [10] -0.048 | ralimetinib 0 | [11] -0.019 | [12] -0.027 | [13] -0.018 | pinometostat 0.006 | [14] -0.008 | [15] -0.009

QDPR (UniProt P09417)
inactive: erlotinib 0.019 | [1] -0.041 | [2] 0.043 | [3] -0.012 | [4] -0.033 | [5] -0.006 | [6] -0.001 | [7] -0.067 | [8] 0.043 | [9] 0.066 | IRAK-1-4 Inhibitor I 0.059 | ibrutinib 0.04 | [10] 0.047 | ralimetinib -0.039 | [11] 0.036 | [12] 0.067 | [13] -0.038 | pinometostat -0.01 | [14] 0.073 | [15] -0.053

PSMG1 (UniProt O95456)
inactive: erlotinib -0.005 | [1] 0.014 | [2] 0.11 | [3] -0.009 | [4] -0.056 | [5] 0.003 | [6] 0.017 | [7] -0.042 | [8] 0.022 | [9] 0.014 | IRAK-1-4 Inhibitor I 0.023 | ibrutinib 0.019 | [10] -0.014 | ralimetinib -0.023 | [11] 0.023 | [12] 0.077 | [13] -0.064 | pinometostat -0.039 | [14] 0.064 | [15] 0.006

PSMG3 (UniProt Q9BT73)
inactive: erlotinib 0.003 | [1] 0.033 | [2] -0.049 | [3] 0.066 | [4] 0.038 | [5] -0.05 | [6] 0.067 | [7] -0.022 | [8] -0.031 | [9] 0.099 | IRAK-1-4 Inhibitor I 0.015 | ibrutinib 0.025 | [10] -0.074 | ralimetinib 0.003 | [11] 0.014 | [12] 0 | [13] -0.032 | pinometostat 0.026 | [14] -0.042 | [15] 0.039

PYM1 (UniProt Q9BRP8)
inactive: erlotinib 0.018 | [1] -0.127 | [2] -0.15 | [3] 0.025 | [4] -0.028 | [5] -0.015 | [6] -0.004 | [7] -0.049 | [8] 0.076 | [9] -0.064 | IRAK-1-4 Inhibitor I -0.058 | ibrutinib 0.034 | [10] 0.065 | ralimetinib 0.015 | [11] 0.099 | [12] 0.069 | [13] 0.03 | pinometostat 0.067 | [14] 0.029 | [15] -0.218

PZP (UniProt P20742)
inactive: erlotinib -0.178 | [1] -0.088 | [2] 0.1 | [3] 0.145 | [4] 0.169 | [5] 0.011 | [6] 0.095 | [7] -0.039 | [8] 0.188 | [9] 0.261 | IRAK-1-4 Inhibitor I 0.076 | ibrutinib 0.075 | [10] 0.118 | ralimetinib 0.006 | [11] 0.137 | [12] 0.109 | [13] 0.041 | pinometostat -0.024 | [14] 0.062 | [15] -0.218

PUM2 (UniProt Q8TB72)
inactive: erlotinib -0.034 | [1] -0.022 | [2] -0.095 | [3] 0.025 | [4] 0.027 | [5] -0.073 | [6] 0.004 | [7] -0.061 | [8] 0.018 | [9] 0.045 | IRAK-1-4 Inhibitor I 0.071 | ibrutinib 0.054 | [10] -0.055 | ralimetinib -0.007 | [11] 0.042 | [12] -0.064 | [13] 0.028 | pinometostat 0.004 | [14] -0.059 | [15] 0.068

PTER (UniProt Q96BW5)
inactive: erlotinib -0.001 | [1] -0.013 | [2] 0.035 | [3] 0.034 | [4] -0.024 | [5] 0.007 | [6] -0.019 | [7] -0.022 | [8] 0.013 | [9] 0.04 | IRAK-1-4 Inhibitor I 0.027 | ibrutinib -0.018 | [10] 0.04 | ralimetinib -0.031 | [11] -0.02 | [12] 0.059 | [13] -0.085 | pinometostat -0.088 | [14] 0.025 | [15] 0.005

PYCR3 (UniProt Q53H96)
inactive: erlotinib 0.015 | [1] 0 | [2] 0.061 | [3] 0.029 | [4] 0.012 | [5] 0.025 | [6] -0.007 | [7] -0.031 | [8] -0.01 | [9] 0.036 | IRAK-1-4 Inhibitor I -0.024 | ibrutinib 0.042 | [10] 0.008 | ralimetinib 0 | [11] -0.057 | [12] 0.119 | [13] -0.01 | pinometostat -0.036 | [14] 0.011 | [15] 0.037

PTK2 (UniProt Q05397)
inactive: erlotinib 0.101 | [1] 0.01 | [2] 0.006 | [3] -0.041 | [4] 0.005 | [5] 0.01 | [6] -0.022 | [7] 0.025 | [8] 0.057 | [9] 0.002 | IRAK-1-4 Inhibitor I 0.001 | ibrutinib -0.014 | [10] 0.103 | ralimetinib -0.05 | [11] -0.029 | [12] -0.122 | [13] 0.006 | pinometostat -0.027 | [14] 0.003 | [15] 0.051

2 successive entries out of the list so far, for reference:
PTBP1 (UniProt P26599)
inactive: erlotinib -0.01 | [1] 0.077 | [2] -0.061 | [3] 0.008 | [4] 0.031 | [5] -0.035 | [6] 0.054 | [7] -0.017 | [8] -0.046 | [9] 0.03 | IRAK-1-4 Inhibitor I -0.051 | ibrutinib 0.047 | [10] -0.053 | ralimetinib 0.098 | [11] -0.026 | [12] -0.131 | [13] 0.008 | pinometostat -0.056 | [14] -0.031 | [15] 0.119

PSMG4 isoform 2 (UniProt Q5JS54)
inactive: erlotinib 0.094 | [1] 0.056 | [2] 0.158 | [3] -0.012 | [4] -0.039 | [5] 0.079 | [6] 0.033 | [7] -0.016 | [8] -0.05 | [9] -0.009 | IRAK-1-4 Inhibitor I 0.074 | ibrutinib -0.025 | [10] 0.054 | ralimetinib -0.123 | [11] -0.069 | [12] 0.057 | [13] -0.017 | pinometostat 0.033 | [14] 0.144 | [15] 0.019

Later entries.

PUS7L (UniProt Q9H0K6)
inactive: erlotinib -0.01 | [1] -0.03 | [2] 0.006 | [3] 0.037 | [4] 0.037 | [5] 0 | [6] -0.012 | [7] -0.026 | [8] -0.076 | [9] -0.018 | IRAK-1-4 Inhibitor I -0.01 | ibrutinib -0.006 | [10] -0.046 | ralimetinib 0.027 | [11] -0.053 | [12] -0.028 | [13] 0.036 | pinometostat -0.02 | [14] -0.012 | [15] 0.01

PYCR2 (UniProt Q96C36)
inactive: erlotinib -0.019 | [1] 0.004 | [2] 0.037 | [3] 0.01 | [4] -0.024 | [5] -0.022 | [6] 0.033 | [7] 0.01 | [8] 0.005 | [9] 0.017 | IRAK-1-4 Inhibitor I -0.002 | ibrutinib 0.021 | [10] 0.002 | ralimetinib -0.009 | [11] -0.011 | [12] 0.008 | [13] -0.017 | pinometostat -0.086 | [14] -0.017 | [15] -0.006

PRXL2B isoform 3 (UniProt Q8TBF2)
inactive: erlotinib 0.029 | [1] -0.096 | [2] 0.058 | [3] 0.012 | [4] -0.005 | [5] 0.071 | [6] 0.088 | [7] -0.036 | [8] -0.032 | [9] 0.063 | IRAK-1-4 Inhibitor I 0.077 | ibrutinib -0.131 | [10] 0.042 | ralimetinib -0.032 | [11] -0.12 | [12] 0.081 | [13] -0.062 | pinometostat -0.086 | [14] -0.033 | [15] 0.078

PSAP isoform 3 (UniProt P07602)
inactive: erlotinib -0.024 | [1] 0.048 | [2] 0.087 | [3] 0.031 | [4] 0.008 | [5] 0.06 | [6] 0.024 | [7] -0.012 | [8] -0.007 | [9] -0.025 | IRAK-1-4 Inhibitor I 0.035 | ibrutinib -0.009 | [10] 0.022 | ralimetinib -0.038 | [11] -0.055 | [12] 0.067 | [13] 0.118 | pinometostat -0.103 | [14] -0.019 | [15] -0.091

Source: the supplement of paper PMC10849652
